# Assay results as given in PubChem BioAssay AID1347075 (National Center for Advancing Translational Sciences (NCATS), 2019).
# The whole screen tested about 400,000 compounds, of which about 5,500 (1.4%) were called active. The inconclusive results got no clear call from the source; some entries with a clear call stand among them for comparison. Calls follow the shape of the dose curve; as a rule, active = well fitted cell-killing curve with a large enough effect; inconclusive = small, poorly fitted or top-dose-only effect, or effect the other way; inactive = flat fitted curve, though single readings scatter. Potencies of inconclusive entries are doubtful fits and often do not repeat.
# Assay: qHTS assay for MDR1-selective chemotherapeutics: Primary screen using the parental adenocarcinoma cell KB-3-1; also: nearly all actives have a fitted effect of over 60% in size
# Details: KB-3-1 viability, CellTiter-Glo ATP luminescence, 72 h; series mostly up to 46.1 µM
# Method in brief: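 Luminescent ATP read-out (CellTiter-Glo) measures survival of drug-naive KB-3-1 cells after 72 h compound exposure at 37 °C. Titration series was screened from lowest to highest concentration, with DMSO vehicle plates as background controls.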
# Potency is read from the fitted curve at half-maximal effect.
row,SMILES,Potency
1,CSCCC(NC(=O)c1ccccc1)C(=O)N1CC=C(c2ccccc2)CC1 (stereo unspecified),"inconclusive: 20.6 µM [cytotoxic, single point]"
2,O=C(O)CSCC(=O)NCc1c(Cl)cccc1Oc1ccccc1,"inconclusive: 0.0461 µM [rising, full curve]"
3,CCN1C(=NCC2CC2)N[C@@H](c2cccc(C(F)(F)F)c2)C(C(=O)OC)=C1C,"inconclusive: 7.31 µM [cytotoxic, partial curve, poor fit]"
4,COc1ccc(-c2csc(N(CCCN(C)C)C(=O)c3ccccc3Cl)n2)cc1,active: 16.4 µM
5,O=C1NC(Cc2ccc(O)cc2)c2nc3cc(F)c(F)cc3c(=O)n2-c2cc3ccccc3cc21 (stereo unspecified),"inconclusive: 29.1 µM [cytotoxic, single point]"
6,Cc1ccc(Cl)cc1N1CCN(C(=O)C2CCCN(S(=O)(=O)c3ccc(Br)s3)C2)CC1 (stereo unspecified),"inconclusive: 16.4 µM [cytotoxic, single point]"
7,CCOc1ccccc1CNC(=O)c1cc2c(=O)n(Cc3ccccc3)ccc2nc1C,inactive
8,Oc1ccc(Cl)c2cccnc12,"inconclusive: 29.1 µM [cytotoxic, single point]"
9,CCOc1ccc(NC(=O)CSc2nccn2-c2cccc(C)c2C)cc1,"inconclusive: 29.1 µM [cytotoxic, single point]"
10,CCCCc1c(-c2ccc(Br)cc2)ncn1CCc1ccccc1OC,active: 16.4 µM
11,CCC1CCCCN1Cc1nc2c(c(=O)n(C)c(=O)n2C)n1CCC(C)C (stereo unspecified),"inconclusive: 5.17 µM [rising, partial curve, poor fit]"
12,COc1ccccc1N1CCN(S(=O)(=O)CCNC(=O)C2CCCC2)CC1,"inconclusive: 32.6 µM [cytotoxic, single point]"
13,Cc1ccc(-c2csc(N(CCO)CCCn3c(C(F)(F)F)nc4ccccc43)n2)cc1,"inconclusive: 29.1 µM [cytotoxic, single point]"
14,CCCCn1c2ccc(F)cc2c2nnc(SCCN3CCCCC3)nc21,"inconclusive: 29.1 µM [cytotoxic, single point]"
15,O=C(/C=C/c1ccc(Cl)cc1)NC(=S)Nc1ccc(N2CCOCC2)c(Cl)c1,"inconclusive: 16.4 µM [cytotoxic, partial curve, poor fit]"
16,Cc1cc(C)n(S(=O)(=O)/C=C/c2ccccc2)n1,"inconclusive: 25.9 µM [cytotoxic, single point]"
17,COc1ccc(C(=O)C=Cc2ccc(OCc3ccccc3)c(OC)c2)cc1OC,"inconclusive: 25.9 µM [cytotoxic, single point]"
18,Cc1cc(Sc2nc(N)ncc2[N+](=O)[O-])ncn1,active: 16.4 µM
19,CSc1ccc(NC(=O)Nc2cccn(Cc3ccccc3)c2=O)cc1,active: 8.2 µM
20,COCCn1cc(C(=O)c2cc(Br)ccc2O)cc(C#N)c1=O,"inconclusive: 20.6 µM [rising, single point]"
21,CC[n+]1c(/C=C/c2cc([N+](=O)[O-])ccc2O)ccc2ccccc21,"inconclusive: 9.2 µM [cytotoxic, single point]"

row,SMILES,Potency
1,O=C(CCl)Nc1c(C(=O)Nc2ccc3c(c2)OCCO3)oc2ccccc12,"inconclusive: 29.1 µM [cytotoxic, single point]"
2,O=C(COC(=O)c1cc(S(=O)(=O)N2CCOCC2)ccc1F)NCc1ccco1,inactive
3,COc1cccc(CNC(=O)[C@@H]2CCCN2C(=O)[C@H]2CCCCN2C(=O)OC(C)(C)C)c1,"inconclusive: 0.231 µM [rising, full curve]"
4,CCCCCCNS(=O)(=O)c1ccc(OC)c(OC)c1,"inconclusive: 10.3 µM [cytotoxic, partial curve, poor fit]"
5,CC(=O)c1cnc2c(-c3ccccc3)c(C(F)(F)F)nn2c1C,"inconclusive: 16.4 µM [cytotoxic, single point]"
6,COc1cc(/C=N/N=C2/C(=O)Nc3ccccc32)cc(OC)c1O,"inconclusive: 16.4 µM [cytotoxic, single point]"
7,COc1ccc(-n2c(SC(C)C(=O)Nc3ncc(Cl)cc3Cl)nc3ccccc32)cc1 (stereo unspecified),active: 20.6 µM
8,CC(=O)N1CCc2cc(NC(=O)C3(C)CCN3Cc3ccccc3OC(F)F)ccc21 (stereo unspecified),"inconclusive: 20.6 µM [cytotoxic, partial curve]"
9,Cc1cccn2c(Nc3ccccc3)c(-c3ccc(N4CCOCC4)cc3)nc12,inactive
10,CSc1cccc(NC(=O)NCc2cccc(CNC(=O)Nc3cccc(SC)c3)c2)c1,"inconclusive: 29.1 µM [cytotoxic, partial curve, poor fit]"
11,CC(=O)c1ccc(NC(=O)c2ccc(C)c(Br)c2)cc1,"inconclusive: 29.1 µM [rising, single point]"
12,O=C(/C=C/c1ccc2c(c1)OCO2)NCCSCc1cccc(Cl)c1,"inconclusive: 29.1 µM [cytotoxic, single point]"
13,O=C(COc1ccc2c(c1)OCO2)Nc1ccc2c(c1)oc1ccccc12,"inconclusive: 29.1 µM [cytotoxic, single point]"
14,Cc1cc(Cl)c(S(=O)(=O)N2CCN(c3ccc(F)cc3)CC2)cc1OCC(N)=O,inactive
15,Cc1ccc(S(=O)(=O)N(C)C)cc1NC(=O)Nc1c(-c2ccccc2)noc1C,"inconclusive: 1.3 µM [cytotoxic, partial curve, poor fit]"
16,COc1ccc2cc(C(=O)C3CCCN(Cc4cnc(C)s4)C3)ccc2c1 (stereo unspecified),"inconclusive: 16.4 µM [cytotoxic, single point]"
17,O=S(=O)(Nc1ccc(O)c(Sc2nc3ccccc3s2)c1)c1cccc2ccccc12,"inconclusive: 16.4 µM [cytotoxic, single point]"
18,COc1ccc(-c2ccc(CN3C(CC(C)C)C(=O)N(Cc4cn(CC5CCCCC5)nn4)CCS3(=O)=O)cc2)cc1 (stereo unspecified),"inconclusive: 16.4 µM [cytotoxic, single point]"
19,COc1ccc(S(=O)(=O)Oc2ccc3ccccc3c2)cc1,"inconclusive: 20.6 µM [cytotoxic, single point]"
20,COCCN(CCOC)S(=O)(=O)c1ccc(NC(=O)c2cnccn2)cc1,inactive

# Some of the entries so far, tab-delimited:
row	SMILES	Potency
13	O=C(COc1ccc2c(c1)OCO2)Nc1ccc2c(c1)oc1ccccc12	inconclusive: 29.1 µM [cytotoxic, single point]
14	Cc1cc(Cl)c(S(=O)(=O)N2CCN(c3ccc(F)cc3)CC2)cc1OCC(N)=O	inactive
